The values that follow come from PMC9161502.

The assay has as its target T1, POGZ (in 293 T cells) (UniProt Q8BZH4).
T1 sequence: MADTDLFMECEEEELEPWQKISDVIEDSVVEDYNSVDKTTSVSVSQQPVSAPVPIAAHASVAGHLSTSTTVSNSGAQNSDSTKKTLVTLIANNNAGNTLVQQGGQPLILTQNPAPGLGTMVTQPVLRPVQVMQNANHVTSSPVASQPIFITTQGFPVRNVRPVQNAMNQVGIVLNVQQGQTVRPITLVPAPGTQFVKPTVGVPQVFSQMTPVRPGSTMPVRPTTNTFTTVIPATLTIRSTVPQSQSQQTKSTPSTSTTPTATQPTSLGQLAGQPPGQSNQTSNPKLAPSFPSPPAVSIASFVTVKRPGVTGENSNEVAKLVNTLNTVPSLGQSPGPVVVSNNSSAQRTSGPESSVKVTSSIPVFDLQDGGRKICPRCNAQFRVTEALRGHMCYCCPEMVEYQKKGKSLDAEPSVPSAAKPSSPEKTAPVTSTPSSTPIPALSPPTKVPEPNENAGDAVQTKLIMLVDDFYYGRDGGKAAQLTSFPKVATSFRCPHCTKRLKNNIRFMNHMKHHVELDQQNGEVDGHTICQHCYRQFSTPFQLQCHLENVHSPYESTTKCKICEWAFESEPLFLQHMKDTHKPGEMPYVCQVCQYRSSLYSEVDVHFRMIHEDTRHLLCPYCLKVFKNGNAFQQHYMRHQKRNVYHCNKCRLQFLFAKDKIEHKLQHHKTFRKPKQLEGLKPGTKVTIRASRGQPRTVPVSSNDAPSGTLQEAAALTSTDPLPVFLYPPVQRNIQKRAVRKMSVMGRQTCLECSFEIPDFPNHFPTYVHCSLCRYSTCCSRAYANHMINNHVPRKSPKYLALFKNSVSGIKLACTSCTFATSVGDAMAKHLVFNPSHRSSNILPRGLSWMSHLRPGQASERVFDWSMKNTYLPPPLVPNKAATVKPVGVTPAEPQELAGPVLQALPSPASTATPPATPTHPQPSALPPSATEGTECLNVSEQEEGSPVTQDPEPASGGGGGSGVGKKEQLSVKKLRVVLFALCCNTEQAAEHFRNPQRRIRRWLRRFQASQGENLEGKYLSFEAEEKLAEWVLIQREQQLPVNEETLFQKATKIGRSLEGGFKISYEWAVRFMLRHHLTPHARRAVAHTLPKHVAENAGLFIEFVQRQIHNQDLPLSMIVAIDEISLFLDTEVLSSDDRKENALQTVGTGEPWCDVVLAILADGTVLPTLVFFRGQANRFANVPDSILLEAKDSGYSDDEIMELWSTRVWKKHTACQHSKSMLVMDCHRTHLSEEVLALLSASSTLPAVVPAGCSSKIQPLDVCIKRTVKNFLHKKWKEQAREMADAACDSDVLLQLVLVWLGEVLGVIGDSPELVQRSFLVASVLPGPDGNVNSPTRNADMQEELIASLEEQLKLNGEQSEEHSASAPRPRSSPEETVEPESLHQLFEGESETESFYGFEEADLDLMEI
Briefly: co-IP; tagged constructs in 293 T cells; total cell lysate with antibody-conjugated Dynabeads Protein G (anti-POGZ, anti-FLAG or anti-HA) overnight at 4 °C; Western blot. (Immunoblotting shows a protein as a band on a membrane.)

Results are given in words; binding and its absence hold for the method and conditions named. Binding seen in cells or lysates may run through a third protein. Binding can be weak; no strength is given.

As to “FLAG-tagged C-terminal fragment of BRG1 (in 293 T cells) (domain or fragment)”, the binding entry is listed as “binds”.
